Results are given in words; binding and its absence hold for the method and conditions named. Binding seen in cells or lysates may run through a third protein. Some results given as binding are weak or reduced against the parent protein; the word gives no strength.
Legend:
[1] = target: Serine/threonine protein kinase 25 (STK25), endogenous (human (endogenous in RKO)) (UniProt O00506); test: co-IP; endogenous proteins; IP with anti-NEDD4 antibody (Figure 5P) or anti-STK25 antibody (Figure 5Q), Western blot; cell line not stated
[2] = target: Serine/threonine protein kinase 25 (STK25), endogenous (human (endogenous in RKO)) (UniProt O00506); test: co-IP; endogenous proteins in RKO cells; reciprocal, IP with anti-STK25 antibody or anti-PD-L1 antibody, Western blot
[3] = target: NEDD4, endogenous (human (endogenous in RKO)) (UniProt P46934); test: co-IP; endogenous proteins; IP with anti-NEDD4 antibody (Figure 5P) or anti-STK25 antibody (Figure 5Q), Western blot; cell line not stated
[4] = target: NEDD4, endogenous (human (endogenous in RKO)) (UniProt P46934); test: co-IP; anti-NEDD4 IP from RKO cells transfected with the indicated plasmids or siRNAs, Western blot (5S: STK25 knock-down, re-expression of STK25 wild type or K49R/D158N; 5T: PD-L1 knock-down, overexpression of PD-L1 wild type or S283A)
[5] = target: PD-L1, endogenous (human (endogenous in RKO)) (UniProt Q9NZQ7); test: co-IP; endogenous proteins in RKO cells; reciprocal, IP with anti-STK25 antibody or anti-PD-L1 antibody, Western blot

Amino acid sequences for entries named in this document (tags omitted). A change or cut given only in a name is not applied to a line headed by its entry. Chains listed by the source or under a name are the forms on record and can include a tag or linker. Residues count along the entry.
UniProt O00506: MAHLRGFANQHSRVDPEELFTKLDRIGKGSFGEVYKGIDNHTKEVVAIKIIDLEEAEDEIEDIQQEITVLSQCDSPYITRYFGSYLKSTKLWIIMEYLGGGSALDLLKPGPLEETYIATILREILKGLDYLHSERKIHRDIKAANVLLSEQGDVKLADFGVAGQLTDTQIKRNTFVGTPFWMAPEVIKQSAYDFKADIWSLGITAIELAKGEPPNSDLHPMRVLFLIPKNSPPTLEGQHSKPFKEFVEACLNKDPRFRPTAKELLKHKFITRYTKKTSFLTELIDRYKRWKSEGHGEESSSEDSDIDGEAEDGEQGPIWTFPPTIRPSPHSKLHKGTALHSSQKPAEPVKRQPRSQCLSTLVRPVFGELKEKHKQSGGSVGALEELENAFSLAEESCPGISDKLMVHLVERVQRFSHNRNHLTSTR
UniProt P46934: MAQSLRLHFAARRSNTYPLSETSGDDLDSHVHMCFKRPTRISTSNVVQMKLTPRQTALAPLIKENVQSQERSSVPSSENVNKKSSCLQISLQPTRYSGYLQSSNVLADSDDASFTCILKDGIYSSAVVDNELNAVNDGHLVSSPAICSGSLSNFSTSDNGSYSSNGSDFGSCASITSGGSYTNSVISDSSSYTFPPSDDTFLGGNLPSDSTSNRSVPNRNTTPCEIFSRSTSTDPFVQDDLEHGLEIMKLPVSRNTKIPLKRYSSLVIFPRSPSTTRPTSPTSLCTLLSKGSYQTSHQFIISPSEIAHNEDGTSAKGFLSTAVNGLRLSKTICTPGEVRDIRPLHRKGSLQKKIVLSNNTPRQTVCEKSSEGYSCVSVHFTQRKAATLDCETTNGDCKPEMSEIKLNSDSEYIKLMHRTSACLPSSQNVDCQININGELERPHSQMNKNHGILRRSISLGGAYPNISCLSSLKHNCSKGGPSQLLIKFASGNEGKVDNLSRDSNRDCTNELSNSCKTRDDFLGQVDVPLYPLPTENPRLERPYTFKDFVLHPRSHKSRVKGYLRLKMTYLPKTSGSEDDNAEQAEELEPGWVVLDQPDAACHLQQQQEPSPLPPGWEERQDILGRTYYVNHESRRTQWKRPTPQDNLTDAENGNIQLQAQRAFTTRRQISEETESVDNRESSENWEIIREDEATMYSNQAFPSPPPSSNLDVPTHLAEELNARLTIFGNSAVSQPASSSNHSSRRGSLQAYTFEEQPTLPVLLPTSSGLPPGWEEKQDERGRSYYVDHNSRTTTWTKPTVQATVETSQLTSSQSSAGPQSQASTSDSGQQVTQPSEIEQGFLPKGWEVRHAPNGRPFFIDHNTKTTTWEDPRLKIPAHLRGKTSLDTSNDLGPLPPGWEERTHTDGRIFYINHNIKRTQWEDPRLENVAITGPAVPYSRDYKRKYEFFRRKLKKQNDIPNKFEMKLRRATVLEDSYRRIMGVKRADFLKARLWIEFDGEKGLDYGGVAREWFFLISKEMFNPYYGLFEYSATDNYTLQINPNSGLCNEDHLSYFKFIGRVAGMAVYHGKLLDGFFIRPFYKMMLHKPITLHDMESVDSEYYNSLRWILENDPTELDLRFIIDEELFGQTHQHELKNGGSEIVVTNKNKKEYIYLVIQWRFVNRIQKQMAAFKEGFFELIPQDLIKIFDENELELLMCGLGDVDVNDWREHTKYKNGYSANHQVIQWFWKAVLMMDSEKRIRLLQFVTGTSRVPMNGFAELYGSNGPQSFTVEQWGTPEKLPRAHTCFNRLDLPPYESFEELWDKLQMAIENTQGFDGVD
wild-type PD-L1, overexpressed from plasmid (Q9NZQ7, residues 19-290): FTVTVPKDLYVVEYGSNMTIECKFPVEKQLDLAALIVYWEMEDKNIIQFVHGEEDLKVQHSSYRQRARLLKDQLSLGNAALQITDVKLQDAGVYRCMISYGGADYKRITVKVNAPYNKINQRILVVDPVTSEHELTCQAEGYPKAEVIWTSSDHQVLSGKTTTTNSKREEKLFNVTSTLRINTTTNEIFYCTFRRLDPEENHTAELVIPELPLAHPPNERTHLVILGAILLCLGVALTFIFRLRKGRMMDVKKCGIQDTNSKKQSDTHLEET
phosphorylation null mutant PD-L1 (S283A), overexpressed from plasmid (Q9NZQ7, form named): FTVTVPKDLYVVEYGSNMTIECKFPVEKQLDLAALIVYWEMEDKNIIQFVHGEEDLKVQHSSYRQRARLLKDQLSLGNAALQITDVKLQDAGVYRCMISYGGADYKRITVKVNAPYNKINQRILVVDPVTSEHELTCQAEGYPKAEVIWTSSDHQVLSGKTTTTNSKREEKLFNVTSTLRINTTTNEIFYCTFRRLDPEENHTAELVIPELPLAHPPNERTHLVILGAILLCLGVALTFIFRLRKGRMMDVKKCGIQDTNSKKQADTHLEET

Substance	binding [1]	binding [2]	binding [3]	binding [4]	binding [5]
PD-L1, endogenous (from UniProt Q9NZQ7 19-290) (ligand)	binds	binds	binds	binds	
Serine/threonine protein kinase 25 (STK25), endogenous (from UniProt O00506 1-426) (enzyme)			binds		binds

The next lines start with the values.

binding [1]	binding [2]	binding [3]	binding [4]	binding [5]	Substance
binds					NEDD4, endogenous (from UniProt P46934 1-1319) (enzyme)
			binds		phosphorylation null mutant PD-L1 (S283A), overexpressed from plasmid (from UniProt Q9NZQ7 19-290) (ligand)
			binds		wild-type PD-L1, overexpressed from plasmid (from UniProt Q9NZQ7 19-290) (ligand)
